# Laboratory results taken from the supplement of paper PMC11732987, “Enantioselective OTUD7B fragment discovery through chemoproteomics screening and high-throughput optimisation” (Communications Chemistry, 2025).
# The chains behind the UniProt entries cited, without tags or fusion partners. Where a name states a change or a piece, a line headed by the entry shows the natural chain unless it says otherwise.
# UniProt Q7Z4H3: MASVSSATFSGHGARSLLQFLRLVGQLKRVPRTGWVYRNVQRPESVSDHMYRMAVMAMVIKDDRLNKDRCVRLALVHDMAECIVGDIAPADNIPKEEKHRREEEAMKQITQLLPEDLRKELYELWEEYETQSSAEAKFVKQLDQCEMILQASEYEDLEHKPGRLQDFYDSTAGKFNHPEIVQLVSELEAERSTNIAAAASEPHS
# The other results are listed elsewhere or left out. The data scatter; read single values as rough.
# Target: T1, HDDC2 C82 (UniProt Q7Z4H3)
# T1 sequence (whole entry): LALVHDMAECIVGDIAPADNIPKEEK
# Experiment: log2 mean competition ratio of IA-DTB cysteine labelling (DMSO/compound) (log2 ratio); higher = stronger cysteine engagement by compound
# Details: 50 µM; treatment time: 4 h; cell line lysate: HEK293T
# Method: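 IA-DTB competitive cysteine chemoproteomics in HEK293T RIPA lysate. Lysates were treated with compound 29 or 30 at 50 or 200 µM for 4 h, then IA-DTB (500 µM, 1 h), trypsin-digested, NeutrAvidin-enriched and analysed by diaPASEF. Competition ratio = intensity DMSO / intensity compound (n=4 treated, n=64 DMSO); binding: mean log2 CR ≥ 1 and p ≤ 0.05 plus QC filters. Target is the cysteine site.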
row,SMILES,log2 mean competition ratio
1,O=C(CCl)N[C@@H]1CCCc2ccccc21,-0.355
2,O=C(CCl)N[C@H]1CCCc2ccccc21,-0.153

# Same assay, conditions: 200 µM; treatment time: 4 h; cell line lysate: HEK293T
row,SMILES,log2 mean competition ratio
1,O=C(CCl)N[C@@H]1CCCc2ccccc21,0.115
2,O=C(CCl)N[C@H]1CCCc2ccccc21,-0.124
